The target of this assay is T1, Glutathione S Transferase (GST)‐tagged GAT domain of GGA3 (UniProt Q9NZ52).
T1 sequence: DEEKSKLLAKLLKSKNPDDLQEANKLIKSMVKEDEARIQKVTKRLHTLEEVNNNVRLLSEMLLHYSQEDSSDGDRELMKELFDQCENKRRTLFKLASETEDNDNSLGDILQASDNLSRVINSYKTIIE
Put plainly: pull-down; GST‐GGA3 GAT (~40 μg) prebound to glutathione‐Sepharose 4B beads, incubated with equal amounts of HeLa lysates at 4°C for 1 h; lysis buffer 1% Triton X‐100, 50 mM Tris pH 7.5, 100 mM NaCl, 2 mM MgCl2, 0.1% SDS, 0.5% sodium deoxycholate, 10% glycerol; cells serum starved and stimulated with EGF for the indicated times (parental, shControl and shGIV cells); bound Arf1 detected by immunoblot; only the target purified.

Sequences of proteins named here, by UniProt entry; tags and fusion partners are left off.
UniProt P84077: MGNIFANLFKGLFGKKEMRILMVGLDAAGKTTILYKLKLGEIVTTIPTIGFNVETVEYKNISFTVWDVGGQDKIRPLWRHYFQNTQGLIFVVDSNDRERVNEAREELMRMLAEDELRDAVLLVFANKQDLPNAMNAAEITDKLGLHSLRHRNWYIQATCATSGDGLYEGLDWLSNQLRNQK

Results are given in words; binding and its absence hold for the method and conditions named. In cells and extracts the contact can be indirect. Some results given as binding are weak or reduced against the parent protein; the word gives no strength. Sequences can lack the tags named with a protein.

Consider Arf1 (from UniProt P84077 1-181), for which the binding result is recorded as “binds”.

The values are drawn from article PMC10090951.
